The target in experiment [1] is T1, sodium/iodide symporter (NIS) tagged with LgBiT (human) (UniProt Q92911).
T1 sequence: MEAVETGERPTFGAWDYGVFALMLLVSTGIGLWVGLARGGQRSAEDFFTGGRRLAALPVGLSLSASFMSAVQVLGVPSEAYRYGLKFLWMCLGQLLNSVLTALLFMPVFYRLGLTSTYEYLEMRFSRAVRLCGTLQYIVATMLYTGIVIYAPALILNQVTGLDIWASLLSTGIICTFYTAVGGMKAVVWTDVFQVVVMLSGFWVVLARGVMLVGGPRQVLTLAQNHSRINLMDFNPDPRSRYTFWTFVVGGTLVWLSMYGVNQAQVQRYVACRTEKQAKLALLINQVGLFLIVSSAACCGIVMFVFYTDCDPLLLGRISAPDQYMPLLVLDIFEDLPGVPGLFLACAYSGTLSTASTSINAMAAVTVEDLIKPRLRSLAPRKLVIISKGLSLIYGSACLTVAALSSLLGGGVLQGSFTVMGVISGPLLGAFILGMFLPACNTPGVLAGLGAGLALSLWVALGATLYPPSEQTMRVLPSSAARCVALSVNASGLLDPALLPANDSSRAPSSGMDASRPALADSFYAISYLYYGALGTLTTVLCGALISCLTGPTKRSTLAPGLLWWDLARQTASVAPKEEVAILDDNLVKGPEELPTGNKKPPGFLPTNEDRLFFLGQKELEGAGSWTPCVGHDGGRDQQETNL
Briefly: split reporter.

Experiment [2] addresses T1, sodium/iodide symporter (NIS) tagged with LgBiT (human). As to the kind of experiment: split reporter. The source holds these as a separate data set.

Where two headings read alike, the source gives them in different places. Results are given in words; binding and its absence hold for the method and conditions named. In cells and extracts the contact can be indirect. Some binding calls cover weakened binding; strength is not graded here. Where a sequence is shown, tags or fusion partners need not be part of it.

The record followed here is paper doi:10.1101/2023.05.22.541733.

B1: PTTG1 Binding Factor (PBF) tagged with SmBiT (protein, UniProt P53801 33-180)
chain: QEPPGAACSQNTNKTCEECLKNVSCLWCNTNKACLDYPVTSVLPPASLCKLSSARWGVCWVNFEALIITMSVVGGTLLLGIAICCCCCCRRKRSRKPDRSEEKAMREREERRIRQEERRAEMKTRHDEIRKKYGLFKEENPYARFENN
As to B1, the binding entry in experiment [1] and in experiment [2] was “binds” each time.
